# Library screen at single concentrations

Chains of the proteins cited; added tags and fusions are not shown.
UniProt P9WPC5, whole entry: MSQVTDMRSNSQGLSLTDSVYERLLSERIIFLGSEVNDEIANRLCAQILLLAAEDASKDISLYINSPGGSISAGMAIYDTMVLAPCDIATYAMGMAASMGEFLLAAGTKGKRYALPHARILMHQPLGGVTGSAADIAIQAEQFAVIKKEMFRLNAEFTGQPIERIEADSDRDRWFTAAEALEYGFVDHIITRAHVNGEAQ
UniProt P9WPC3, whole entry partner: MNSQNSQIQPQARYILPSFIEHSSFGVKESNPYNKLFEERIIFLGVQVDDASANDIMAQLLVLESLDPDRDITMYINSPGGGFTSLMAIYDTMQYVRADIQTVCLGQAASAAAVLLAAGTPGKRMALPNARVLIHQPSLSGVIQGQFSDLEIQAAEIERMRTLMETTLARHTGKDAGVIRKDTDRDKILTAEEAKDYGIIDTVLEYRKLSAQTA
UniProt P9WNZ1, whole entry: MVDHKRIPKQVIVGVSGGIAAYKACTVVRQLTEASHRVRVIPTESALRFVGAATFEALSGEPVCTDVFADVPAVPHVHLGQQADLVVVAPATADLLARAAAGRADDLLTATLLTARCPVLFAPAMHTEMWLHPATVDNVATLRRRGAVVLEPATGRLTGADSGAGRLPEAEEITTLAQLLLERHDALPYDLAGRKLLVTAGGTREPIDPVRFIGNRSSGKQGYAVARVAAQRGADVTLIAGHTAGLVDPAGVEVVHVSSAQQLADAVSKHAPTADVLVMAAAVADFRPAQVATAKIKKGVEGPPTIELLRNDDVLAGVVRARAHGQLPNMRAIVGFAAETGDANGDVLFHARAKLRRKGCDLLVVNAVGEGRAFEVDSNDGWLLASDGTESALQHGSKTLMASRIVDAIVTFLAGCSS

ClpP1P2: 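ClpP1P2, Mycobacterium tuberculosis (UniProt P9WPC5 and UniProt P9WPC3). Protease assay of ClpP1P2, read by the AMC dye that it sets free. Tested at 50 µM. Higher reads as stronger inhibition, judged from the few compounds that gave an IC50. Most other retested compounds had strongly negative values. About 69,000 compounds were tested under these conditions; 0.015% (about 10) showed 50% or more at least once.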
CoaBC: 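Coenzyme A biosynthesis protein CoaBC, Mycobacterium tuberculosis (UniProt P9WNZ1). Enzyme assay of CoaBC with a phosphate dye (Biomol Green) read at 650 nm. Concentration: 30 µM. Higher reads as stronger inhibition, judged from the few compounds that gave an IC50. Most strong results did not repeat in a second test. Size under these conditions: about 67,000 compounds, about 40 of them at 50% or above in at least one test.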
Toxoplasma: 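Assay of Toxoplasma gondii numbers, read through their beta-galactosidase reporter with a colour substrate. Compounds at 10 µM. Higher reads as fewer parasites (inferred from which compounds were picked for retests). Size under these conditions: about 67,000 compounds, about 260 of them at 50% or above in at least one test.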

Values are the deposited “Percent Effect”, in %.
How 0% and 100% were set is not recorded. Most values in the screen are low, and negative values occur.
Compounds were drawn at random from those tested, without regard to their results.
A dash means the value is not listed here; it may have been measured.

| # | Compound | ClpP1P2 | CoaBC | Toxoplasma |
|---|---|---|---|---|
| 1 | `Cc1noc(CNC(=O)C2CSCCC(=O)N2)n1` (stereo unspecified) | -10.35 | 0.3817 | 14.9 |
| 2 | `CNC(=O)c1ccc(CN2CCC(N(C)Cc3noc(C)n3)C2)cc1` (stereo unspecified) | 23.72 | 9.487 | 2.54 |
| 3 | `CCCN(CC1COc2ccccc2O1)C(=O)c1ncoc1CC` (stereo unspecified) | -13.86 | 0.3659 | 6.126 |
| 4 | `CC(C)COC[C@H]1CC[C@H]2[C@H](CCN2C(=O)c2ccncc2F)O1` | -12.54 | -0.2469 | - |
| 5 | `COc1ccc(F)cc1C(C)NC(=O)c1nnc(C)s1` (stereo unspecified) | 1.283 | -2.203 | 2.499 |
| 6 | `CC(C(=O)N1CCN(c2ccccc2)CC1)n1cc(Br)cn1` (stereo unspecified) | -6.671 | 9.238 | 5.859 |
| 7 | `Cc1nc(C)n(CC2CCCCN2CC(=O)Nc2c(C)n[nH]c2C)n1` (stereo unspecified) | -24.28 | 4.092 | -9.805 |
| 8 | `O=C1O[C@@H]2CN(c3ccccn3)C[C@@H]2N1CCCc1ccc(F)cc1` | 3.918 | 6.364 | - |
| 9 | `CN(C)S(=O)(=O)N1CCCC(c2cccc(Cc3ccccc3)n2)C1` (stereo unspecified) | 7.346 | 4.319 | 3.338 |
| 10 | `CC(C)(C)CC(=O)NC(C)(C(N)=O)c1cccc(Cl)c1` (stereo unspecified) | -13.18 | 0.2427 | 25.53 |
| 11 | `COc1c(CNCc2ccc(CN(C)C)cc2)c(C(C)C)nn1C` | -3.365 | 2.128 | -19.76 |
| 12 | `O=C(CSCC1CC1)N1CCC2(CCCN(C3CCOCC3)C2=O)C1` (stereo unspecified) | 0.1046 | 7.593 | -15.36 |
| 13 | `c1cc(CNc2cnc(C3CCCN3)cn2)ccn1` (stereo unspecified) | -36.51 | 1.142 | - |
| 14 | `COCCN(C)C(C(=O)O)c1ccc(F)c(C)c1` (stereo unspecified) | -17.02 | -0.6165 | -34.1 |
| 15 | `CN(CCCc1cc(-c2cccc(F)c2)n[nH]1)C(=O)Cn1cncn1` | 2.026 | 0.4831 | -12.27 |
| 16 | `NC(=O)C(NCc1nn(-c2ccccc2)c2c1CCC2)c1ccccc1` (stereo unspecified) | -44 | 4.092 | -2.4 |
| 17 | `O=C(NC1CCN(C2CC2)CC1)c1[nH]nc(C2CC2)c1Cl` | -1.985 | - | 17.19 |
| 18 | `Cc1ccc(=O)n(CC2(O)CCN(Cc3ccoc3)CC2)n1` | -8.806 | -1.225 | -2.408 |
| 19 | `CC(C#N)CN(C)C(=O)CCNC(=O)OCC(F)(F)F` (stereo unspecified) | -4.967 | -2.479 | 7.663 |
| 20 | `COC(=O)C(c1cc(F)ccc1F)N(C)C(=O)c1ccnc(C)n1` (stereo unspecified) | 3.745 | -1.828 | -1.406 |
| 21 | `CC(c1ccncc1)N(CCN(C)C)C(=O)Nc1ccc(Cl)c(Cl)c1` (stereo unspecified) | -20.28 | 3.544 | 5.519 |
| 22 | `CC(C)N(C(=O)c1ccnc(OCC(F)(F)F)c1)c1cccnc1` | 3.248 | 8.293 | 2.21 |
| 23 | `[H][C@@]12OCCN(C(=O)C3CCOCC3)[C@@]1([H])CC[C@H]2OC` | - | - | -18.89 |
| 24 | `Cc1nn(C)c(N(C)C)c1CNCc1ccccc1CO` | -0.5937 | 3.435 | 16.19 |
| 25 | `CC(Cc1ccco1)NS(=O)(=O)N1CCCCC1` (stereo unspecified) | -8.802 | 1.935 | 0.1189 |
| 26 | `CN(CCOc1cccc(CNC(=O)C2CC2)c1)C1CCOCC1` | -9.047 | -4.051 | -4.847 |
| 27 | `CCCn1ncc(C(=O)N2CCN([C@H]3CCCC[C@@H]3O)CC2)c1C` | -14.5 | -0.6536 | -11.61 |
| 28 | `CCCc1nnc2sc(C3CCS(=O)(=O)CC3)nn12` | -2.139 | 5.926 | -20.05 |
| 29 | `CCn1c(C)nnc1SCCNc1cc(N2CCOCC2)ncn1` | 23.43 | 7.807 | 3.285 |
| 30 | `Cn1ccc(C(=O)NCc2cccc(N3CCCCC3=O)c2)cc1=O` | 4.935 | 3.162 | -1.224 |
| 31 | `CN(CCO)Cc1nnc(C2CCN(C(=O)c3ccccc3)CC2)n1C` | -2.356 | 5.398 | 5.13 |
| 32 | `Cn1nc(CNC(=O)c2ccc3c(c2)OCO3)c2c1CCOC2` | -13.99 | 0.9223 | 4.805 |
| 33 | `O=C(CSc1nccc(-c2ccc3c(c2)OCO3)n1)N1CCOCC1` | 3.506 | 0.3681 | 22.37 |
| 34 | `N#Cc1cnc(NC2CCN(C(=O)C3CC3)CC2)c(Cl)c1` | -0.2036 | -1.818 | 11.89 |
| 35 | `CNC(=O)c1cc(C2CCCN2)n[nH]1.Cl` (stereo unspecified) | - | - | 7.3 |
| 36 | `[H][C@@]12CC[C@H](Oc3cccc(F)c3)[C@]1([H])CN(C(=O)c1ccnnc1)C2` | - | - | -0.5766 |
| 37 | `O=C(NC[C@H]1Cn2c(-c3ccccc3)cnc2CO1)C1CC1` | -7.779 | 9.051 | 11.68 |
| 38 | `Cc1cnn(CC2CCN(CC(O)Cn3cccn3)CC2)c1` (stereo unspecified) | -9.405 | -1.517 | -0.3211 |
| 39 | `CN1CCC2(COCc3cnc(-c4ccccc4)nc32)C1.O=C(O)C(F)(F)F` (stereo unspecified) | - | - | -2.11 |
| 40 | `CC(N1CCN(C(=O)NCc2cccc(C#N)c2)CC1)C(F)(F)F` (stereo unspecified) | -17.62 | 4.156 | 17.03 |
| 41 | `N[C@@H]1CCC[C@@H](Oc2ccc(F)cc2Oc2ccccc2)[C@@H]1O` | -12.66 | 4.866 | 0 |
| 42 | `CCc1cnc(CN(C)C(=O)Nc2cnc3c(c2)c(C)nn3C)s1` | -3.4 | 0.8696 | -0.1873 |
| 43 | `COc1ccc(C(=O)N2CCC(Nc3ccc(C)nn3)CC2)cc1` | -9.429 | 0.3817 | 15.29 |
| 44 | `COCCOc1cc(C)ccc1NC(=O)N(C)Cc1cnn(C)c1` | -18.42 | -3.842 | 5.061 |
| 45 | `COc1ccc(CNC(=O)c2cc3c(nc2O)CCC(C)C3)cc1` (stereo unspecified) | 1.082 | 1.927 | 6.314 |
| 46 | `N#Cc1ccc(Cl)cc1NCC1CCOC1` (stereo unspecified) | -12.53 | 8.091 | 16.13 |
| 47 | `Cc1nc(CN2CCN(CC(O)CN3CCOCC3)CC2)oc1C` (stereo unspecified) | -17.27 | 3.949 | 1.836 |
| 48 | `CCn1c(CN(C)CC(=O)N(C)C)nc2c(F)cccc21` | -6.586 | 4.435 | -8.283 |
| 49 | `Cc1nnc(NCC2(c3ccccc3)CCOCC2)c(C#N)c1C` | -6.105 | -0.3205 | -1.896 |
| 50 | `O=C(c1ccc(=O)[nH]c1)N1CCCC2(C=Cc3ccccc3O2)CC1` (stereo unspecified) | 6.417 | 9.328 | -16.06 |
| 51 | `O=C(O)C(F)(F)F.O=C(O)C(F)(F)F.c1ccc(CN2CCOCC3(CCN(C4CCOCC4)C3)C2)cc1` (stereo unspecified) | - | - | -14.97 |
| 52 | `CC(=O)c1cc2ncc(C(=O)NC3CCCC3)cc2[nH]1` | -10.58 | 3.398 | -12.72 |
| 53 | `O=C(C1=NN(Cc2ccccc2)c2ccccc2S1(=O)=O)N1CCCC1` | 6.183 | -6.131 | -11.33 |
| 54 | `CC(C)c1ccc(C#N)c(N2CC(C)(C)[C@@](C)(O)C2)n1` | -21.83 | -0.4464 | 5.692 |
| 55 | `CC(C)CCN1CCN(CC(=O)Nc2ccc3nsnc3c2)CC1` | -10.4 | -15.36 | -16.17 |
| 56 | `CC(NC(=O)C1CCCCC1)c1cc(O)nc(-c2cccnc2)n1` (stereo unspecified) | -2.347 | 7.748 | 3.637 |
| 57 | `COCCn1cc(C(=O)NCCS(N)(=O)=O)c2ccccc21` | 10.42 | 4.783 | 4.182 |
| 58 | `COc1c(C2CCCN2C(=O)c2cccn2C)c(C)nn1C` (stereo unspecified) | -12.6 | 2.689 | 1.409 |
| 59 | `Cc1nc(C)c(CCNC(Cc2ccncc2)C(F)(F)F)s1` (stereo unspecified) | -5.434 | - | -2.412 |
| 60 | `Cc1cc(C)n(CCC(=O)N2CCCC(c3nc(C(C)C)no3)C2)n1` (stereo unspecified) | 2.487 | -20.09 | 3.03 |
| 61 | `COc1ccc2c(=O)ccn(CC(=O)O)c2c1` | 2.802 | -1.734 | 19 |

The last 4 entries again:

- COc1c(C2CCCN2C(=O)c2cccn2C)c(C)nn1C (stereo unspecified) : ClpP1P2: -12.6%; CoaBC: 2.689%; Toxoplasma: 1.409%
- Cc1nc(C)c(CCNC(Cc2ccncc2)C(F)(F)F)s1 (stereo unspecified) : ClpP1P2: -5.434%; Toxoplasma: -2.412%
- Cc1cc(C)n(CCC(=O)N2CCCC(c3nc(C(C)C)no3)C2)n1 (stereo unspecified) : ClpP1P2: 2.487%; CoaBC: -20.09%; Toxoplasma: 3.03%
- COc1ccc2c(=O)ccn(CC(=O)O)c2c1 : ClpP1P2: 2.802%; CoaBC: -1.734%; Toxoplasma: 19%

Source: ChEMBL document CHEMBL3988442, “University of Dundee, Small-Polar-MMV Screening Library” (2021).